Data taken from ChEMBL document CHEMBL3988442, “University of Dundee, Small-Polar-MMV Screening Library” (2021).

By UniProt entry, the sequences of proteins in these tests, tags left out.
UniProt E9BF75, entry or part of it: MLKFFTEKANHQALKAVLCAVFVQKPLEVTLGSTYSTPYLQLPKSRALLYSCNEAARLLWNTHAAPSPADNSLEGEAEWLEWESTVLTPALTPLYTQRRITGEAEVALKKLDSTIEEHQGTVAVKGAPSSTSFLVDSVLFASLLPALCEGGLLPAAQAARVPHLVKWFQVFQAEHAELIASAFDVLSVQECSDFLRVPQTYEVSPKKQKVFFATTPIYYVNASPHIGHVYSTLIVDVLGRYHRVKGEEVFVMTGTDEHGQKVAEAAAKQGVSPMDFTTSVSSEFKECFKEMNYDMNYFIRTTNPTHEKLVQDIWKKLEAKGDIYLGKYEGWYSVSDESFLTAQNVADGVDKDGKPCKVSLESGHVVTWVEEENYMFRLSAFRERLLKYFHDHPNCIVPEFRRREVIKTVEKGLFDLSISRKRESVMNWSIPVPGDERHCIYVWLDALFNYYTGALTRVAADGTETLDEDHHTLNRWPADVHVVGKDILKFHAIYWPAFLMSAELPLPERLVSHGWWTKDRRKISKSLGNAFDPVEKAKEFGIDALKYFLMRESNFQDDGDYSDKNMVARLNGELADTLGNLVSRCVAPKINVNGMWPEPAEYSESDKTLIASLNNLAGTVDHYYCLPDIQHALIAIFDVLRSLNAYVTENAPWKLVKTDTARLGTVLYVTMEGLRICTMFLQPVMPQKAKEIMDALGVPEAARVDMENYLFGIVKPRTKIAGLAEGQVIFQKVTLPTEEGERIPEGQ

A: 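Primary screen of methionyl-tRNA synthetase; the read-out is not stated. Target: Methionyl-tRNA synthetase (putative), Leishmania donovani (UniProt E9BF75). The test concentration is not given. The values are filed as inhibition. About 68,000 compounds were tested under these conditions; 0.035% (about 24) showed 50% or more at least once.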
B: 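Assay on Mycobacterium tuberculosis, filed only as a heat shock assay from Cornell; the read-out is not stated. The concentration is filed as 10 mM, unlikely as a test dose, so the dose is not known. Direction is inferred from retests: higher values go with stronger inhibition. About 69,000 compounds were tested under these conditions; 1.4% (about 930) showed 50% or more at least once.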

Results are percentages, as filed. How 0% and 100% were set is not recorded. Most values in the screen are low, and negative values occur. This is an unselected part of the compounds tested.

- O=C(O)C(F)(F)F.c1csc(CN2CCc3ncnc(C4CCOC4)c3CC2)n1 (stereo unspecified) : B: -40.72%
- CSc1ccccc1NC(=O)C1CN(C(=O)c2ccc3c(c2)OCO3)C1 : A: 21.1%; B: -15.41%
- Cc1csc([C@@H]2C[C@@H]3CCN(C(=O)c4cnccn4)C[C@H]3O2)n1 : A: 16.31%
- CN(C)[C@@H]1CCN(C(=O)CC2CC2)[C@H]1Cc1cnn(C)c1.O=C(O)C(F)(F)F : B: 1.412%
- Cl.O=C(NCCn1nc(C2CCNC2)c2cccnc21)C1CC1 (stereo unspecified) : B: -15.23%
- Cn1cnc(CNC(=O)c2ccccc2-n2cc(CN)cn2)c1 : A: 19.42%; B: -12.65%
- CC(C#N)CN(C)C(=O)CCNC(=O)C(C)(C)C (stereo unspecified) : A: 19.63%; B: 0.8242%
- Cn1cc(CN(Cc2ccccc2)CC(O)c2cccs2)cn1 (stereo unspecified) : A: 6.32%; B: -1.706%
- CNC(=O)c1nc(CN2CCOC(CCCC(C)C)C2)no1 (stereo unspecified) : A: 11.02%; B: -26.71%
- CCOc1ccc(CN2CCC(c3nc(C)cc(C)n3)C2)cc1CO (stereo unspecified) : A: 9.006%; B: -5.905%
- Cc1cc(Cc2ccccc2C)cc(C2CCCNC2)n1 (stereo unspecified) : A: 13.02%; B: -13.74%
- Cc1cc(C)n(C2CCCN(C(=O)c3cccc(F)c3F)C2)n1 (stereo unspecified) : A: 5.722%; B: -40.66%
- CCC(CC)C(CNC(=O)Nc1ccc(OC)cc1)N1CCOCC1 (stereo unspecified) : A: 1.742%; B: 4.128%
- CCN1CCN(c2ccc(F)cc2C(C)NCc2noc(C)n2)CC1 (stereo unspecified) : A: 12.27%; B: -2.821%
- [H][C@]12CN(CC3CC3)C(=O)[C@@]1([H])CN(S(=O)(=O)c1cccs1)C2 : B: 10.41%
- Cc1csc(CCCNC(C)CC(=O)Nc2cccc(C)c2C)n1 (stereo unspecified) : A: 6.72%; B: -8.905%
- O=C(O)C(F)(F)F.O=C(O)C(F)(F)F.[H][C@@]12COC[C@]1(C(=O)NCc1ccccn1)CN(Cc1ccccc1F)C2 : B: -19.69%
- Cc1nnc(C(C)N2CCN(Cc3ccc(C#N)cc3)CC2)o1 (stereo unspecified) : A: 9.15%; B: 22.96%
- CCc1cnc(CN(C)C(=O)NC2CCN(c3ccccc3)C2)s1 (stereo unspecified) : A: 23.69%; B: 13.93%
- COC1CN(C(=O)C2CC2)CCC(=O)N(C)c2ccccc21 (stereo unspecified) : A: 12.88%; B: 28.66%
- CC(O)CN1CCC(CNCc2cccc(C(N)=O)c2)CC1 (stereo unspecified) : A: 15.03%; B: 7.299%
- [H][C@@]12CCN(C(=O)c3cccc(F)c3)[C@]1([H])CN(C(=O)c1ccsc1)C2 : B: -5.638%
- [H][C@@]12CCCN1C[C@H](Cc1ccccc1)N(Cc1cnn(CCC)c1C)C2 : B: -13.7%
- CCn1nc(C)cc1C(=O)NCc1cc(N(C)C)nc2ccccc12 : A: 9.399%; B: -2.543%
- Cc1cccnc1CNCC1(O)CCCN(CC(C)(C)C)C1=O (stereo unspecified) : A: 13.35%; B: 9.433%
- COc1ccc(-c2noc(CN3CCc4cncnc4C3)n2)cc1 : A: 21.43%; B: 18.96%
- CNC(=O)c1ccnc(CC2COc3c(cccc3OC)C2)c1 (stereo unspecified) : A: 15.48%; B: -48.65%
- [H][C@]12CC[C@]([H])(CC(=O)NC1)N2C1CSCCSC1 : B: 0.743%
- Cc1cnn(CC2CN(CC(=O)Nc3cc(C)on3)CCO2)c1 (stereo unspecified) : A: 18.95%; B: 15.93%
- CCc1ccc(C(=O)N2CCN(CCO)CC2)o1 : A: 13.41%; B: -6.002%
- Cn1ccnc1CN1C(=O)CO[C@H]2CN(Cc3ccccc3O)C[C@H]21 : A: 5.763%
- COc1cc(-c2nc(N)n[nH]2)cc(OC)c1OC : A: 4.839%; B: -5.382%
- O=C(c1cccc2cn[nH]c12)N1CCCC1c1noc(C2CC2)n1 (stereo unspecified) : A: 11.45%; B: 1.231%
- Cc1nn(CC(=O)N2CCN(c3ccncc3)CC2)c(C)c1Cl : A: 21.13%; B: 10.1%

3 of the entries, repeated:

* Cc1nn(CC(=O)N2CCN(c3ccncc3)CC2)c(C)c1Cl | A: 21.13%; B: 10.1%
* CNC(=O)c1nc(CN2CCOC(CCCC(C)C)C2)no1 (stereo unspecified) | A: 11.02%; B: -26.71%
* CNC(=O)c1ccnc(CC2COc3c(cccc3OC)C2)c1 (stereo unspecified) | A: 15.48%; B: -48.65%